# Measurements: the supplement of paper PMC3334620
# The full ranking holds about 33,000 sequences; the median of “E-score (-0.5 to 0.5)” is about -0.0059, and the highest 2% start at about 0.26. The list shows a part of the results.
# Molecular target: T1, Cin5 (UniProt P40917)
# T1 sequence: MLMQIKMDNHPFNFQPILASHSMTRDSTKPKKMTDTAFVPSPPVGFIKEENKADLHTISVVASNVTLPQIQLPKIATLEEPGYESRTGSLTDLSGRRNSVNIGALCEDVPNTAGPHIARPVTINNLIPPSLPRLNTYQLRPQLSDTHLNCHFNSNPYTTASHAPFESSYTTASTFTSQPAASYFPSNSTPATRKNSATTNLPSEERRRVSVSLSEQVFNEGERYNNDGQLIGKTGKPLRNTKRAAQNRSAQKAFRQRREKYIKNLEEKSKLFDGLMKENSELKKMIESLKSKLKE
# Assay: PBM E-score (8-mer binding enrichment) (E-score (-0.5 to 0.5)); higher = stronger / more preferred TF binding
# Conditions: protein concentration: 100 nM; construct: GST-full length
# In short: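 Yeast transcription factors, full-length or as DNA-binding domains, were expressed with a GST tag using PURExpress in vitro transcription/translation. At about 100-200 nM they were applied to universal all-10-mer Agilent arrays, double-stranded by primer extension on fresh or once-stripped slides. Fluorescent anti-GST detected bound protein, and masliner normalised the scans. E-scores for ungapped eight-base words, pooled with reverse complements, came from the Universal PBM Analysis Suite.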
row,Sequence,PBM E-score
1,GTTCAAAC,0.0903
2,TGGTAGAA,-0.0897
3,TAAAAGAA,0.0997
4,CCCTACCG,-0.099
5,CATACTGC,0.0225
6,CAGGCGGG,-0.0938
7,CAAGAATA,0.198
8,ATCTACGC,0.233
9,ATGGAAGG,-0.311
10,GATCCGTA,-0.0139
11,CCTTGAGC,-0.155
12,CTTCGATC,0.108
13,TGCACACA,-0.104
14,CACAACGG,-0.189
15,CATGGCCG,0.121
16,GGAGAGAA,-0.0302
17,AAACAGGC,-0.18
18,AAGAACAA,0.197
19,ATGGTACC,-0.129
20,GAACCTGC,0.0368
21,AAGCCGTC,0.0199
22,ACTGTCAT,0.0864

row,Sequence,PBM E-score
1,AGATTTAC,0.173
2,CACGCCAG,-0.198
3,AGACTAAA,-0.00675
4,CTTTACCA,0.0101
5,CCGTGCCG,-0.0664
6,ATCCGAGC,0.00034
7,CCACGAAG,-0.254
8,CGTACAAA,0.042
9,AGAATGTG,0.0226
10,CCTGCCCG,-0.0402
11,GTGAGATA,0.164
12,GGTGTTTA,-0.00352
13,GTTCGGGA,0.106
14,CCGAGAGG,-0.229
15,CAGCCTCG,-0.0103
16,GAGCAAGA,-0.0376
17,ATTCCGTG,0.139
18,ACTATCTA,0.148
19,CAGAAGAG,-0.115
20,CCGTCGCG,-0.14
21,AGGAAGAT,0.0519
22,GAGAAGAC,-0.0329

row,Sequence,PBM E-score
1,AAATTTGT,0.137
2,GCTGGCAA,0.0752
3,ATTAGTGC,0.226
4,TCAGGCGA,-0.06
5,GAACAATA,0.229
6,CACAGCGG,-0.134
7,AATAGGGA,0.0188
8,ATGCCAAC,0.0879
9,CAACGATA,0.0323
10,AAATCTAG,-0.0474
11,GCGACTGA,-0.12
12,GTGTTAGA,0.0639
13,AGGAGTCG,-0.0987
14,CAGCACAG,0.103
15,AGATCCGC,0.0508
16,ATTATAAC,0.212
17,CTGGGCCA,-0.366
18,CTCACGCA,0.274
19,CCTGGATC,-0.163
20,ATCTTCTC,0.118
21,CTGCGCAG,-0.126
22,CCATGCCC,-0.229

row,Sequence,PBM E-score
1,ACTTGTTA,0.0796
2,ACCCGCAA,-0.252
3,CGAACCTA,-0.0686
4,CACGCGCC,-0.0398
5,AAAGTATT,0.203
6,CGGTGTAA,-0.0608
7,GGTATAGA,-0.00764
8,GTGGGTAA,-0.125
9,GACAGGCA,-0.144
10,ACTGAAGT,0.109
11,ATTCGATC,0.143
12,AGCCCCGA,-0.0651
13,TAGGCCAA,-0.0899
14,ATCATAAG,0.204
15,GAGCAGGC,-0.227
16,GAACAGAC,0.0587
17,GTTGGGAA,-0.00813
18,AGCCGGGC,-0.216
19,GGGATATA,0.0575
20,CGCTCAAC,0.0617
21,ACATTCGA,0.0628
22,ATAATAAT,0.22

row,Sequence,PBM E-score
1,AGCAGGAT,0.0397
2,ACCCCCGC,-0.27
3,GATGCTTA,0.0868
4,AGTCAACC,-0.0575
5,GGCATTAA,0.0403
6,GGCTGCAC,-0.148
7,AAGTATCT,-0.0261
8,GCGCAGAA,0.148
9,ACTGGTCC,-0.242
10,CGTAGGAG,-0.233
11,CACGTCAG,0.184
12,ATAACTAA,0.141
13,ATGTTTAC,0.138
14,AAACCTTG,0.072
15,TCCATCAA,0.209
16,GGAGGTGA,-0.101
17,GTGGGCTA,-0.041
18,CATGTCTA,-0.151
19,AGAAGTCG,-0.0866
20,ACATGCAT,0.148
21,CCCACCGG,-0.277
22,GTGGATGA,0.157

# Already shown: entries from further up.
row,Sequence,PBM E-score
12,ATAACTAA,0.141
13,ATGTTTAC,0.138
14,AAACCTTG,0.072
